According to article PMC7819943, “Rice protein-binding microarrays: a tool to detect cis-acting elements near promoter regions in rice”:
The list shows a part of the results.

By UniProt entry, the sequences of proteins in these tests, tags left out.
UniProt Q0JBA9, entry or part of it: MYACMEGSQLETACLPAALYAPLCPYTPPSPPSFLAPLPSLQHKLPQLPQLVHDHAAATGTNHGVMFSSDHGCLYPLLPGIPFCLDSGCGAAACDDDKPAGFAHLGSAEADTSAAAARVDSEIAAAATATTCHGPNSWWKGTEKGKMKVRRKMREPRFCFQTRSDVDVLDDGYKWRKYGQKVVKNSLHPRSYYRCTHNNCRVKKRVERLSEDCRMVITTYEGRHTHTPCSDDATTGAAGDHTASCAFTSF

Biological target: OsWRKY34 (Oryza sativa, UniProt Q0JBA9 1-250)
Experiment: protein-binding microarray (RPBM); PBS, 2% BSA, 51.3 ng/ul salmon testes DNA, 50 uM zinc acetate, 200 nM TF, 25 C, 1 h; high values mean tight binding
Details: protein: recombinant; tags: N-terminal polyhistidine and DsRed monomer fusion (pET32a); label: CyDye5-dUTP incorporated in the synthesized complementary strand; 3' TTTTT single-stranded linker to array surface; dsDNA, one strand shown
Method in brief: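 In PBS with 2% BSA, salmon testes DNA and 50 µM zinc acetate, 200 nM protein was incubated on a custom Agilent array at 25 °C for 1 h and then washed off. The array had been made double-stranded by primer extension with Cy5-dUTP and blocked with 2% BSA. The proteins were transcription factors fused N-terminally to polyhistidine and DsRed, expressed in E. coli BL21-CodonPlus and purified on Ni–NTA. The binding signal is per-feature fluorescence intensity (arbitrary units) from an Axon 4000B scanner.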

Sequence | binding signal
CTCTCCTCGGGTTCGACTCTCCACCGCTGTCACTCACTCTCGGAGTCACCTAGTGCAG | 10000 fluorescence intensity (a.u.)
CTTTTGGCCGTACTTTTTTCATCTGGGTCCTTTGCCGCCCCGGAGTCACCTAGTGCAG | 8400 fluorescence intensity (a.u.)
ACCGTGCTCCCGCACCCGTGGTTCCGCGCCATCTGCCTCGCGGAGTCACCTAGTGCAG | 8070 fluorescence intensity (a.u.)
TTCGAAAGATGCATAGATACTCCCATTTCTTTCTTTATTTCGGAGTCACCTAGTGCAG | 9930 fluorescence intensity (a.u.)
AGAGGGAGTGGGGTGGCATGGTGGTTAATTTTTTACCCAACGGAGTCACCTAGTGCAG | 8440 fluorescence intensity (a.u.)
TCCCCATTCCTCCCTCCCTTTCGATCTGTTCGTCCTCCTACGGAGTCACCTAGTGCAG | 8740 fluorescence intensity (a.u.)
TTTCAGGCTAGACTATTAATCCCTTGACTTTTCAAAACATCGGAGTCACCTAGTGCAG | 8750 fluorescence intensity (a.u.)
AAAAATCATCTCTCCCAGTTGCAACTTCCAAATTTGGCCGCGGAGTCACCTAGTGCAG | 9530 fluorescence intensity (a.u.)
CTCTCCGCCGCCGTCCCGTTTCCTCCTCCCGCACAGATTCCGGAGTCACCTAGTGCAG | 9680 fluorescence intensity (a.u.)
CGTGTGCTGTTCTATGCCCAATTGCAGTCCAACTCACCACCGGAGTCACCTAGTGCAG | 8480 fluorescence intensity (a.u.)
CACTCCACTCTCCCATCACTCATCACCCGCACGAGTAAAACGGAGTCACCTAGTGCAG | 11300 fluorescence intensity (a.u.)
GTCGATCACCTGGGTCCACACGTCAGTGTCTAATCCAGAACGGAGTCACCTAGTGCAG | 8110 fluorescence intensity (a.u.)
ATAATAGGGCTTTGTTTTCGCCGTTTGTTGAGTCGTCCCTCGGAGTCACCTAGTGCAG | 11100 fluorescence intensity (a.u.)
TCATCCCAAGTTCCAGTATAAGGGTCAATCAGTTCCTCCACGGAGTCACCTAGTGCAG | 8720 fluorescence intensity (a.u.)
ATGTTTCCGTTGTATTCCATGTGGTCATTTCCCAACATACCGGAGTCACCTAGTGCAG | 10700 fluorescence intensity (a.u.)
TTTCCATGCATGTATCGCCTACCTGCCCATTTAATTTGATCGGAGTCACCTAGTGCAG | 9100 fluorescence intensity (a.u.)
TAATGTGTTTGGCGCTACTCTTTATCCATATCTAAATCTACGGAGTCACCTAGTGCAG | 8240 fluorescence intensity (a.u.)
GTTTGACTATCCTATGTAATCCAATATTCCCTCCAATGCACGGAGTCACCTAGTGCAG | 8030 fluorescence intensity (a.u.)
GGGATTATTGGGTCCACATGAGTTATAGGATTGAGATTCTCGGAGTCACCTAGTGCAG | 8990 fluorescence intensity (a.u.)
CAAATTACTACTACCTCCGTCCCAAAATAATTGCATTTCTCGGAGTCACCTAGTGCAG | 8950 fluorescence intensity (a.u.)
GTTTGCCATCCACGATATCCGTCGATTCGCGTCACGTCAGCGGAGTCACCTAGTGCAG | 8560 fluorescence intensity (a.u.)
ATTTCAAAATTTTAGGACTTATGTACTGCCAGTGTAATTTCGGAGTCACCTAGTGCAG | 9100 fluorescence intensity (a.u.)
AAGTCGCAACACCTCGTTGATCTTGTTTTTGTTAGCGATGCGGAGTCACCTAGTGCAG | 9230 fluorescence intensity (a.u.)

Exported in markdown: part of the list above

| Sequence | binding signal |
| --- | --- |
| CTCTCCGCCGCCGTCCCGTTTCCTCCTCCCGCACAGATTCCGGAGTCACCTAGTGCAG | 9680 fluorescence intensity (a.u.) |
| TCATCCCAAGTTCCAGTATAAGGGTCAATCAGTTCCTCCACGGAGTCACCTAGTGCAG | 8720 fluorescence intensity (a.u.) |
